This is one part of the list.
What follows are sequences tested against OsWRKY34 (Oryza sativa, UniProt Q0JBA9 1-250) (assay: protein-binding microarray (RPBM); PBS, 2% BSA, 51.3 ng/ul salmon testes DNA, 50 uM zinc acetate, 200 nM TF, 25 C, 1 h; high values mean tight binding). Conditions: protein: recombinant; tags: N-terminal polyhistidine and DsRed monomer fusion (pET32a); label: CyDye5-dUTP incorporated in the synthesized complementary strand; 3' TTTTT single-stranded linker to array surface; dsDNA, one strand shown.
How it was run: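 The binding signal is fluorescence intensity per feature, in arbitrary units, read on an Axon 4000B scanner. Polyhistidine- and DsRed-tagged transcription factors (N-terminal fusions) from E. coli BL21-CodonPlus were purified on Ni–NTA and applied at 200 nM for 1 h at 25 °C to a double-stranded, BSA-blocked custom Agilent array in buffer with 50 µM zinc acetate.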

Chains of the proteins cited; added tags and fusions are not shown.
UniProt Q0JBA9, entry or part of it: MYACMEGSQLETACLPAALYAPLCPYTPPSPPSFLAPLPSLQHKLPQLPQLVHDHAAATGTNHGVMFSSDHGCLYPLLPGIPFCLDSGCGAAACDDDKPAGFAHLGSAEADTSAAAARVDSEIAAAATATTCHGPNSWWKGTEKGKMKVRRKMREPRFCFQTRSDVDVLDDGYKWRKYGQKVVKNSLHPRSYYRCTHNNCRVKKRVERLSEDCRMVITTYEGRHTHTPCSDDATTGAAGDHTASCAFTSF

| Sequence | binding signal |
| --- | --- |
| TTGCAAAGGATCCGGATCCAACTATTAATGTCGCTGCAATCGGAGTCACCTAGTGCAG | 8270 fluorescence intensity (a.u.) |
| AATCTGTTTTTTGCTTTTTTGCCCTTTTCACGGTTTTTCCCGGAGTCACCTAGTGCAG | 10800 fluorescence intensity (a.u.) |
| GTTGTTTGTGGTAGCGCTCTTTTTACAATTCCACATATTTCGGAGTCACCTAGTGCAG | 15300 fluorescence intensity (a.u.) |
| ACAAAATTTTCATCTCTTTCATGGATACGAATACGCTGCACGGAGTCACCTAGTGCAG | 8140 fluorescence intensity (a.u.) |
| ACCACCACCGCCATCAACGCCACCAACGTCGCCGCCGCCGCGGAGTCACCTAGTGCAG | 11000 fluorescence intensity (a.u.) |
| AGGGTTTGGGGTCAGCTACTTGGAACATTTGAAAATGGAACGGAGTCACCTAGTGCAG | 10200 fluorescence intensity (a.u.) |
| GCCCATAACTACTCTACCGCGCGTCTCCAGCCCACACGGACGGAGTCACCTAGTGCAG | 9180 fluorescence intensity (a.u.) |
| TGCGGGTGTTGACCGGCCATATATATCTCGTAGACCTGCACGGAGTCACCTAGTGCAG | 8610 fluorescence intensity (a.u.) |
| CCTTTTATTTCTCTTTAGATTTTTTATTTTGCAGTACATTCGGAGTCACCTAGTGCAG | 9420 fluorescence intensity (a.u.) |
| TGAATTGACCATCAGATTTGTCGATGTTTTTGTCATCTCGCGGAGTCACCTAGTGCAG | 8300 fluorescence intensity (a.u.) |
| CTCCCTGGCGGCGCCACCCGTTTCTCTAATGCCGTCTTCTCGGAGTCACCTAGTGCAG | 9440 fluorescence intensity (a.u.) |
| ACTCTCATGCTCCTACTGTCCTCATTTGAACACATGTACACGGAGTCACCTAGTGCAG | 11000 fluorescence intensity (a.u.) |
| ACATTGCTGATCTTGTCTATTCTTCATACAATATAAGTTTCGGAGTCACCTAGTGCAG | 11200 fluorescence intensity (a.u.) |
| CTGCGTTGGGTGCTGCCATTATATCCATTCCTCTCGCCACCGGAGTCACCTAGTGCAG | 8510 fluorescence intensity (a.u.) |
| GGTTGTATGGTGTGCCTTTTGAGGGAAAGAGATGCAAATTCGGAGTCACCTAGTGCAG | 12900 fluorescence intensity (a.u.) |
| CTACTCCGGCCGCCTCGTGTTCAGCTCCGCCGGCGCCGCGCGGAGTCACCTAGTGCAG | 13000 fluorescence intensity (a.u.) |
| GTTTATAAACTTAGTCAAACTTGAAACAGTTTGACTTTGACGGAGTCACCTAGTGCAG | 12400 fluorescence intensity (a.u.) |
| TCCTCCTACTTGCACCGCAGCCGCAGCCGCAGCCCACCACCGGAGTCACCTAGTGCAG | 8200 fluorescence intensity (a.u.) |
| ACGGGGTAGGGTGGGGAGGGGAAATAGGAGGAAGACGGGTCGGAGTCACCTAGTGCAG | 12000 fluorescence intensity (a.u.) |
| CAGAGTGGACTTATTCCTTTCATTTTTCGATTTTCGTTGCCGGAGTCACCTAGTGCAG | 9030 fluorescence intensity (a.u.) |
| GCCGTGCGCGCGACGGAGGCGACAAGCGTGGTGAAGTGGTCGGAGTCACCTAGTGCAG | 11800 fluorescence intensity (a.u.) |
| GTCGTTCCTCTGCCTCGTGGGCCTTGTGGCCGGCAGCCGGCGGAGTCACCTAGTGCAG | 8360 fluorescence intensity (a.u.) |
| TGTGCTTACCTAGTATAAATCTTTTCCTGTTATATTTTTCCGGAGTCACCTAGTGCAG | 9210 fluorescence intensity (a.u.) |
| ACCTGTCGGCACCGGGCGCGTAGCGCGTTCACGCCTCATCCGGAGTCACCTAGTGCAG | 8050 fluorescence intensity (a.u.) |
| GGGCGGCTCCCCGGCGACCCCGCTCGGCCACCTCCGCCCGCGGAGTCACCTAGTGCAG | 8670 fluorescence intensity (a.u.) |
| GGGTGTGATCCATCTTATTCGTCTCACAAAATTCTTTTATCGGAGTCACCTAGTGCAG | 12100 fluorescence intensity (a.u.) |
| TGAAATTTTTCTCTGGGTTGGGTGTTCGGTGCAAGGCTTTCGGAGTCACCTAGTGCAG | 11000 fluorescence intensity (a.u.) |

| Sequence | binding signal |
| --- | --- |
| TCGGCGCAGCGGAGGGAGGGGAGGAAGGGTTTTGGAATTACGGAGTCACCTAGTGCAG | 8120 fluorescence intensity (a.u.) |
| CTCTCCTCTGATCCTCTCTAATCATTCGTTGATTTCATTCCGGAGTCACCTAGTGCAG | 8930 fluorescence intensity (a.u.) |
| CACTCTCGTACCCACTTCAGTTTCTATAGGAGTTAGCTCTCGGAGTCACCTAGTGCAG | 10200 fluorescence intensity (a.u.) |
| GTGGGCTCTCTCGTTGGGTTGCTATCCGTCCACCCGTCCACGGAGTCACCTAGTGCAG | 9020 fluorescence intensity (a.u.) |
| CTCCCACCCCAGCAGCGCCGCCGCCGCCGCCGCCGCCGCCCGGAGTCACCTAGTGCAG | 10300 fluorescence intensity (a.u.) |
| GATCCATCCATCCACCGTGTCTTCTCTTCCCTCTCCAATGCGGAGTCACCTAGTGCAG | 8800 fluorescence intensity (a.u.) |
| AGATTTCAATATTGTGATTTATCTATTCATGTGTTTCAATCGGAGTCACCTAGTGCAG | 9980 fluorescence intensity (a.u.) |
| AAATTTGTTCTCTTGTCATTTTTTATTATTATATGCACATCGGAGTCACCTAGTGCAG | 8550 fluorescence intensity (a.u.) |
| AATTTACTTCCCTTACCTATTTCTTCTACATCTTACTCCTCGGAGTCACCTAGTGCAG | 8930 fluorescence intensity (a.u.) |
| CACATATCCACCCACCCAGCACACAGACAGCAGCGACACACGGAGTCACCTAGTGCAG | 8940 fluorescence intensity (a.u.) |
| GTTCTTCGTCGCCTCCATCCACATCGTCGTCGCCACCACCCGGAGTCACCTAGTGCAG | 11300 fluorescence intensity (a.u.) |
| CAAGATGGGTCGGGTTGGGTGGGGTTACTCGCACTAGCACCGGAGTCACCTAGTGCAG | 22300 fluorescence intensity (a.u.) |
| TCGCACGCCAAATTCACACGTGACAGCTACCGTCTTCTCGCGGAGTCACCTAGTGCAG | 8760 fluorescence intensity (a.u.) |
| TTTCTTGGTTCCTGTGTCTAAGCCAGCTGTAAACTTACAACGGAGTCACCTAGTGCAG | 8450 fluorescence intensity (a.u.) |
| TCGGGTCGGTCCGCGCCGCCGCGAACCTCTCGTCCTCCATCGGAGTCACCTAGTGCAG | 8470 fluorescence intensity (a.u.) |
| ACTGAACATGTTTGACCGTTCGTCTTATTCAAAAATTTTTCGGAGTCACCTAGTGCAG | 11200 fluorescence intensity (a.u.) |
| ACTACCTCTTTTGATTTTTGGGTATACGTTTGACCATTCGCGGAGTCACCTAGTGCAG | 10800 fluorescence intensity (a.u.) |
| CTATACCTGGTCCCATCTGTCATACACACATTACGTTTTGCGGAGTCACCTAGTGCAG | 8730 fluorescence intensity (a.u.) |
| CATCACCAGCCTCACCTTCGCCTCCACCTCCTCCGCGCTCCGGAGTCACCTAGTGCAG | 10900 fluorescence intensity (a.u.) |
| TATATACTGCACTTCTGCCCTATACACTGTATTTGTATTTCGGAGTCACCTAGTGCAG | 12800 fluorescence intensity (a.u.) |
| TGTTTATAGTTTAGCTTTGCTCATTACTAGCTATATTCTGCGGAGTCACCTAGTGCAG | 8090 fluorescence intensity (a.u.) |
| GCATTTCGGCGAAGCCTACTTTTGATGATGGCATGTATCCCGGAGTCACCTAGTGCAG | 8930 fluorescence intensity (a.u.) |
| TCATGTGTTTGCGAGCAGCTCTTGCTCTGTTATTCACATGCGGAGTCACCTAGTGCAG | 8400 fluorescence intensity (a.u.) |
| ATTTACTCCTCGTTCCACCTTCCCCGCTTCAATTCGCCTCCGGAGTCACCTAGTGCAG | 8180 fluorescence intensity (a.u.) |
| GACTTTTCTTATACTTTTTCCATCCCATAAAAAACTACTACGGAGTCACCTAGTGCAG | 8210 fluorescence intensity (a.u.) |
| ATCTCTGCTCAGTTTCTTTTTTCTGCTTGAACTTGAACATCGGAGTCACCTAGTGCAG | 9940 fluorescence intensity (a.u.) |
| TACCTCGACTCACCCTTCCATGGCCTCCTCCACACCTCCTCGGAGTCACCTAGTGCAG | 9000 fluorescence intensity (a.u.) |

Random excerpt: four records from the list.

| Sequence | binding signal |
| --- | --- |
| ACAAAATTTTCATCTCTTTCATGGATACGAATACGCTGCACGGAGTCACCTAGTGCAG | 8140 fluorescence intensity (a.u.) |
| GCCGTGCGCGCGACGGAGGCGACAAGCGTGGTGAAGTGGTCGGAGTCACCTAGTGCAG | 11800 fluorescence intensity (a.u.) |
| TTTCTTGGTTCCTGTGTCTAAGCCAGCTGTAAACTTACAACGGAGTCACCTAGTGCAG | 8450 fluorescence intensity (a.u.) |
| CATCACCAGCCTCACCTTCGCCTCCACCTCCTCCGCGCTCCGGAGTCACCTAGTGCAG | 10900 fluorescence intensity (a.u.) |

Source: PMC7819943, “Rice protein-binding microarrays: a tool to detect cis-acting elements near promoter regions in rice”
